Assay results from the supplement of paper PMC11006884.
Shown are results outside the selection of targets with a hit, which stands elsewhere. This is a noisy data set. Only a part is listed here, and it is no random draw.

Compound: COC(=O)/C=C/c1ccccc1 [methyl cinnamate]
Assay: log2 ratio of iodoacetamide-alkyne labeling of the cysteine site, DMSO over compound (competition); higher = stronger covalent engagement of the cysteine by the compound, active = 1 or more
Conditions: 500 µM; treatment time 1 h; system: HEK293T cell lysate
Method in brief: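 Reporter intensities give each cysteine's log2 competition ratio as the mean of control channels over the mean of compound channels. The samples were HEK293T lysate (2 mg/mL) given vehicle or electrophile (500 µM, 1 h, ambient temperature), then iodoacetamide alkyne (1 h), followed by click coupling to sCIP-TMT reagents, pooling, trypsin digestion overnight at 37 °C, streptavidin enrichment, acid elution, Orbitrap Eclipse LC-MS/MS with FAIMS and FragPipe quantification. Duplicate channels and three replicates were run, and cysteines quantified in only one replicate were discarded.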

log2 ratio of iodoacetamide-alkyne labeling, inactive:
CEBPZ C411 (UniProt Q03701) 0.154
EIF3I C160 (UniProt Q13347) 0.0449
CSTF3 C646 (UniProt Q12996) 0.353
NCBP1 C503 (UniProt Q09161) 0.231
AKAP12 C1407 (UniProt Q02952) 0.331
RPL18A C22 (UniProt Q02543) 0.0525
TRAF2 C112 (UniProt Q12933) 0.166
UniProt Q03164_C990 0.25
PRDX4 C245 (UniProt Q13162) 0.227
TCOF1 C38 (UniProt Q13428) -0.117
PSMD2 C251 (UniProt Q13200) 0.222
TRIM28 C124 (UniProt Q13263) 0.0665
GTF3C1 C2046 (UniProt Q12789) -0.0436
SCRN1 C324 (UniProt Q12765) 0.366
TLE1 C89 (UniProt Q04724) -0.00836
RING1 C72 (UniProt Q06587) 0.124
AKAP12 C1399 (UniProt Q02952) 0.331
COASY C357 (UniProt Q13057) -0.00705
NOTCH2 C1357 (UniProt Q04721) 0.204
UniProt Q07955_C148 0.0606
NSUN2 C93 (UniProt Q08J23) 0.231
DHX9 C415 (UniProt Q08211) 0.207
BPTF C1357 (UniProt Q12830) 0.139
AHNAK C108 (UniProt Q09666) 0.364
EP300 C1164 (UniProt Q09472) 0.124
COASY C140 (UniProt Q13057) 0.134
PPAT C100 (UniProt Q06203) 0.216
CHAF1A C202 (UniProt Q13111) 0.288
SSRP1 C200 (UniProt Q08945) 0.196
UniProt Q08170_C115 0.145
DST C4370 (UniProt Q03001) 0.297
UniProt Q12905_C37 -0.124
UniProt Q02750_C376 0.1
PRDX1 C173 (UniProt Q06830) 0.299
SNTB2 C374 (UniProt Q13425) 0.117
CSTF1 C178 (UniProt Q05048) -0.117
NME3 C158 (UniProt Q13232) 0.0108

Three entries drawn at random from the list so far:
log2 ratio of iodoacetamide-alkyne labeling, inactive:
TRAF2 C112 (UniProt Q12933) 0.166
AKAP12 C1399 (UniProt Q02952) 0.331
UniProt Q08170_C115 0.145
